Experimental data as given in patent US8334267B2, “Mangiferin calcium salts, the method for its preparation and its use” (Hainan Deze Drug Research Co., Ltd., priority 2007, dated 2012).

Tested on: GK rats
Assay: Efficacy in GK model (plasma glucose, insulin, lipids)
Assay type: in vivo, Goto-Kakizaki rats (GK)
Method: Rosiglitazone Hydrochloride tablets were purchased from Zhejiang wanma pharmaceutical Co., Ltd. Mangiferin and mangiferin calcium were suspended with 3% sodium carboxymethyl cellulose before use.
Goto-Kakizaki rats (GK) (16 weeks age, ♀ ♂) were purchased from Shanghai SLAC laboratory animal Co., Ltd. The animals were kept in IVC cages with temperature (22° C.). There are two rats in each cage.
Experimental group: GK rats group (n=10); mangiferin groups (20, 40, 80 mg/kg, each 10 rats); mangiferin calcium groups (10, 20, 40 mg/kg, each 10 rats); Rosiglitazone Hydrochloride group [3 mg/kg, n=10]. Test samples or vehicle control was given orally for 30 days. GK rats group were given vehicle.
The blood specimens were taken by abdominal aorta at the end of the test. Plasma glucose (GLU), insulin (INS), triglycerides (TG), total cholesterol (TC), high density lipoprotein (HDL), low density lipoprotein (LDL) were determined
GLU, TC, TG, HDL and LDL levels were determined using GF-D800 semi-auto chemist which was purchased from Shandong Gaomi Caihong Analytical Instrument Co., Ltd. Insulin: radioimmunoassay (RIA), γ counter counts. insulin RIA Kit was purchased from Shandong Weifang City three-dimensional (3V) Biological company.
Statistics: The results have been calculated as mean±SD ( x±SD) and comparisons of the data have been done by t-test.

## O=c1c2cc(O)c(O)cc2oc2cc([O-])c([C@@H]3O[C@H](CO)[C@@H](O)[C@H](O)[C@H]3O)c(O)c12.O=c1c2cc([O-])c(O)cc2oc2cc(O)c([C@@H]3O[C@H](CO)[C@@H](O)[C@H](O)[C@H]3O)c(O)c12.[Ca+2] [Mangiferin calcium, mangiferin calcium]
10 mg/kg orally for 30 days
  Weigh: 318.63 ± 16.94 g
20 mg/kg orally for 30 days
  Weigh: 307.15 ± 13.67 g
40 mg/kg orally for 30 days
  Weigh: 307.61 ± 13.88 g

## O=c1c2cc(O)c(O)cc2oc2cc(O)c(C3OC(CO)C(O)C(O)C3O)c(O)c12 (stereo not drawn) [Mangiferin]
20 mg/kg orally for 30 days
  Weigh: 319.56 ± 21.50 g
40 mg/kg orally for 30 days
  Weigh: 311.85 ± 10.40 g
80 mg/kg orally for 30 days
  Weigh: 312.67 ± 10.43 g
